Like-named read-outs stand apart in the source and are kept apart here. Results are given in words; binding and its absence hold for the method and conditions named. Binding seen in cells or lysates may run through a third protein. Binding can be weak; no strength is given. Tags and fused reporters may be left off the sequences shown.
Assays:
[1] = target: T1, VPS33b with GFP1-10 cloned onto its C-terminus (VPSbarrel) (UniProt P59016); assay: split reporter
T1 sequence: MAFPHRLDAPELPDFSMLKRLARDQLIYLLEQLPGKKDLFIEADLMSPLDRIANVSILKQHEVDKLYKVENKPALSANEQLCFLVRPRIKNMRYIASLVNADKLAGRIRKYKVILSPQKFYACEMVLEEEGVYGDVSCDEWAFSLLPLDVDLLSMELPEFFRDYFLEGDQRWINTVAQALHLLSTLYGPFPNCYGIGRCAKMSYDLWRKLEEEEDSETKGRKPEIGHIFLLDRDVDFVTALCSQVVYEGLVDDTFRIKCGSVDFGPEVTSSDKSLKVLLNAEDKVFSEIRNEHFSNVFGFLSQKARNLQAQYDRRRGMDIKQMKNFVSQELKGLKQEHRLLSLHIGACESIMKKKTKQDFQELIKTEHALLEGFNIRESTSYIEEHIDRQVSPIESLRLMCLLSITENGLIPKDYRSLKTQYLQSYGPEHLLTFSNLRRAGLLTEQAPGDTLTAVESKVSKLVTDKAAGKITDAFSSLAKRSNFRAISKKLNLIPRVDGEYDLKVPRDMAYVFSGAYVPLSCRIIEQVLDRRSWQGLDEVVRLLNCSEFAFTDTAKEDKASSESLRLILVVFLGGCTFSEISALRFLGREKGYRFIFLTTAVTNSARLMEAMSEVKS

Amino acid sequences for entries named in this document (tags omitted). A change or cut given only in a name is not applied to a line headed by its entry.
UniProt P11087: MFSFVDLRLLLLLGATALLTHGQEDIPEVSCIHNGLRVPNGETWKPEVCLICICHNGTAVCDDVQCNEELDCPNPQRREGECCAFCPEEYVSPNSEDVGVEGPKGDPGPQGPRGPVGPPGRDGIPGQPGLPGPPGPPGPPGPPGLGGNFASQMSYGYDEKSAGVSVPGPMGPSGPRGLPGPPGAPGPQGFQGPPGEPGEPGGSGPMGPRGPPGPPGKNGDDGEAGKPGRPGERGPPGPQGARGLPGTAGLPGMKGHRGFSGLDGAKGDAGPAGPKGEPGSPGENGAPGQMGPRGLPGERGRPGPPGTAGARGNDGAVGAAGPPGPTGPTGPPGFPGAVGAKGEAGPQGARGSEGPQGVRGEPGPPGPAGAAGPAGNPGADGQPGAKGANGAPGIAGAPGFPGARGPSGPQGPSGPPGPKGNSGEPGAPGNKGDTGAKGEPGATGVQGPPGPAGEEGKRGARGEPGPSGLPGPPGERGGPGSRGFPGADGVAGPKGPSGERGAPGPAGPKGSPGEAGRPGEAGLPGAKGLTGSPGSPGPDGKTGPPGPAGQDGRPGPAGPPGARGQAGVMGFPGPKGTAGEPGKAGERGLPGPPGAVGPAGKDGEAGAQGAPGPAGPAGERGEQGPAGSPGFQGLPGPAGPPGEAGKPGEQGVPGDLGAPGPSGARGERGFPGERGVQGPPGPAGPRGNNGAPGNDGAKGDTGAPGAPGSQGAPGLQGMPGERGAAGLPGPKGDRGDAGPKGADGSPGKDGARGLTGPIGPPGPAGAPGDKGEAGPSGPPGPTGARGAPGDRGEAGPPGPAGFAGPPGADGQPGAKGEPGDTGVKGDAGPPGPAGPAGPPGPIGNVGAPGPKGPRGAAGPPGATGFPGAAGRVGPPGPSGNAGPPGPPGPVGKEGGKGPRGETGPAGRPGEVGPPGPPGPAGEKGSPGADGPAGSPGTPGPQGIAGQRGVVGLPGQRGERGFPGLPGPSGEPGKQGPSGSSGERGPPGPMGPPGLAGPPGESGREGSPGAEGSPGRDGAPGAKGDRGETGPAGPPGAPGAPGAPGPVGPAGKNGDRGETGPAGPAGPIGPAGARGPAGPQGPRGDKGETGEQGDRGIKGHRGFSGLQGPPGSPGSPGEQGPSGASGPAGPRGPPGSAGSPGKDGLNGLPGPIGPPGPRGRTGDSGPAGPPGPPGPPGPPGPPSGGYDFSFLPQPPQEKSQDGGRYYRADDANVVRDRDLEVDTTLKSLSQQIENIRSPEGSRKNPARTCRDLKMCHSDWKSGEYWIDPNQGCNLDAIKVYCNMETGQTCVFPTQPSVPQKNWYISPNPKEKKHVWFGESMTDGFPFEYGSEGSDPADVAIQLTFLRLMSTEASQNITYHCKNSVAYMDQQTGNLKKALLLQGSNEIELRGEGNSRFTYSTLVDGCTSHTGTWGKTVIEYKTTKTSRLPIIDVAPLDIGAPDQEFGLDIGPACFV

[2] = target: T1, VPS33b with GFP1-10 cloned onto its C-terminus (VPSbarrel); assay: split reporter; remark: listed apart in the source

binding [1]: binds
binding [2]: binds
Substance: proα1(I) chain of collagen-I with the GFP11 peptide (colI-GFP11) (from UniProt P11087)

Reference: paper doi:10.1101/2021.03.25.436925
